The target in assay [1] is Fis1 phosphorylation-mimetic mutant (Fis1^T34D) (UniProt Q9Y3D6). The experiment in a line: co-IP; HCAEC lysates (50 mM Tris-HCl pH 8.0, 150 mM NaCl, 1 mM EDTA, 1% Triton X-100, 0.5% sodium deoxycholate) incubated with Protein G-agarose beads and the indicated antibodies overnight at 4 °C, immunoblot; cells subjected to sI/R injury, with or without empagliflozin (10 µM, 12 h before), with or without transfection of Drp1^S616D or Fis1^T34D; which protein was precipitated is not told.

Chains of the proteins cited; added tags and fusions are not shown. Lines headed by an entry give the natural chain unless they say otherwise; changes in a name come on top.
UniProt Q9Y3D6: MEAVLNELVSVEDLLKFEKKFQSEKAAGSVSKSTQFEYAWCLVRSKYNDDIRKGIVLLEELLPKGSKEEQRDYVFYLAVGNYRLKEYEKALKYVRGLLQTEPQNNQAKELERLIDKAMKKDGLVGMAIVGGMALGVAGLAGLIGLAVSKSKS
UniProt O00429: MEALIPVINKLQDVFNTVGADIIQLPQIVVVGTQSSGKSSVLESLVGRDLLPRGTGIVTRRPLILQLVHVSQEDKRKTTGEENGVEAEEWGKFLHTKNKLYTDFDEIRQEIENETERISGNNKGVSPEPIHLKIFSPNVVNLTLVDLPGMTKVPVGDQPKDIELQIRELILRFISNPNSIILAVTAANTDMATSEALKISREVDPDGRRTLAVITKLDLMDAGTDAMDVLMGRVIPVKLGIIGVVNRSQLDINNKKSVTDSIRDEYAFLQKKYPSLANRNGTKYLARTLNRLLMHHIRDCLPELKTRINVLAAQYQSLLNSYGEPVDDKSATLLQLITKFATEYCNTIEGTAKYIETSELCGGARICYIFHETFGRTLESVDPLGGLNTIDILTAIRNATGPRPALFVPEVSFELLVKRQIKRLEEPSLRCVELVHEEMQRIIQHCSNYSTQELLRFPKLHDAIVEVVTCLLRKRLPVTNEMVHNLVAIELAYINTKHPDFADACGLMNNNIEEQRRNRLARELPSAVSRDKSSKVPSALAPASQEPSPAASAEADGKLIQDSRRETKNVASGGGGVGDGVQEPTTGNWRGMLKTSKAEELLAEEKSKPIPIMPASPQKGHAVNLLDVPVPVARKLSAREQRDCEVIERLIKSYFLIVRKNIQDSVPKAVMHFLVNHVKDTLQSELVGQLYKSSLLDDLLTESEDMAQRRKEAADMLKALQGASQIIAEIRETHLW

Assay [2] addresses mitochondrial fission 1 protein (human (endogenous in HCAECs)) (UniProt Q9Y3D6). The assay is described as above.

No constants are given. Whether binding was seen depends on the method and setting. Binding seen in cells or lysates may run through a third protein. Some binding calls cover weakened binding; strength is not graded here.

Turning to “dynamin-related protein 1 (from UniProt O00429 1-736)”, the binding entry in assay [1] and in assay [2] was “binds” in each case.

Source of the values: PMC9202214.
